Laboratory results as given in US7678885 (GENETICS INSTITUTE, dated 2010).
Results are given in words; binding and its absence hold for the method and conditions named. For some of these results: Binding seen in cells or lysates may run through a third protein. Some entries that bind do so weakly or less than the wild type.

Sequences of proteins named here, by UniProt entry; tags and fusion partners are left off. A change or cut given only in a name is not applied to a line headed by its entry.
UniProt P18075: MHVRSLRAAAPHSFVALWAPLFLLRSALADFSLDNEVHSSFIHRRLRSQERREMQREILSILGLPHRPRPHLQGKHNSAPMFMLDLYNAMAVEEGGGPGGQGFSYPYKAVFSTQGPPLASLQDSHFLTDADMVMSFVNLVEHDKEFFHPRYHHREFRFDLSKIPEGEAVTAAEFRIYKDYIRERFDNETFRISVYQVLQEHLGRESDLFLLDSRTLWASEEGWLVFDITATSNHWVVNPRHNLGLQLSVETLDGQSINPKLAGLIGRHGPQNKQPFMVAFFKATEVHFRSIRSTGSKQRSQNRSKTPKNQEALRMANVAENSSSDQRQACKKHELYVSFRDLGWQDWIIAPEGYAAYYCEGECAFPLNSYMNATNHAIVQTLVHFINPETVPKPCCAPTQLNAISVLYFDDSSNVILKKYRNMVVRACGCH

B1: E. coli BMP-2 monomer (mature portion of BMP-2 from plasmid pALBP2-781) (ligand)
chain: MQAKHKQRKRLKSSCKRHPLYVDFSDVGWNDWIVAPPGYHAFYCHGECPFPLADHLNSTNHAIVQTLVNSVNSKIPKACCVPTELSAISMLYLDENEKVVLKNYQDMVVEGCGCR
B2: BMP-2 subunit beginning with amino acid #283 (CHO-produced) (ligand)
chain: QAKHKQRKRLKSSCKRHPLYVDFSDVGWNDWIVAPPGYHAFYCHGECPFPLADHLNSTNHAIVQTLVNSVNSKIPKACCVPTELSAISMLYLDENEKVVLKNYQDMVVEGCGCR
notes: also called mature BMP-2 subunit

How the values were obtained:
[1] = biological target: T1, E. coli BMP-3 monomer (a form of mature BMP-3 from plasmid pAIB3-782) (human) (UniProt P12645); experiment: co-refolding of E. coli monomers, SDS-PAGE with and without reduction
T1 sequence (looked up): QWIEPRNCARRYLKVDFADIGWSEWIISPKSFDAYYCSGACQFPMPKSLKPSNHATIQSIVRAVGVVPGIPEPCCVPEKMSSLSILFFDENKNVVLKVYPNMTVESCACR

[2] = biological target: E. coli BMP-7 monomer (mature BMP-7 deleted for its first seven residues, from plasmid pALBMP7-981) (human) (UniProt P18075); experiment: co-refolding of E. coli monomers, C4 HPLC and SDS-PAGE
[3] = biological target: BMP-7 subunit (CHO-produced) (human) (UniProt P18075); experiment: co-immunoprecipitation with an antibody to one subunit, Western with an antibody to the other
[4] = biological target: BMP-7 subunit (CHO-produced) (human) (UniProt P18075); experiment: two-dimensional non-reducing/reducing gel of labelled and purified protein from co-expressing CHO cells (disulfide-linked heterodimer)

Row | Binder | binding [1] | binding [2] | binding [3] | binding [4]
1 | B1 | binds | binds | – | –
2 | B2 | – | – | binds | binds
